Test results published in PMC6116281.
No constants are given. Whether binding was seen depends on the method and setting. For part of these data: In cells and extracts the contact can be indirect. Some binding calls cover weakened binding; strength is not graded here. Tags and fused reporters may be left off the sequences shown.

T1: Grr1 (wild-type), Gal4 binding domain bait (S. cerevisiae) (UniProt P24814)
T1 sequence: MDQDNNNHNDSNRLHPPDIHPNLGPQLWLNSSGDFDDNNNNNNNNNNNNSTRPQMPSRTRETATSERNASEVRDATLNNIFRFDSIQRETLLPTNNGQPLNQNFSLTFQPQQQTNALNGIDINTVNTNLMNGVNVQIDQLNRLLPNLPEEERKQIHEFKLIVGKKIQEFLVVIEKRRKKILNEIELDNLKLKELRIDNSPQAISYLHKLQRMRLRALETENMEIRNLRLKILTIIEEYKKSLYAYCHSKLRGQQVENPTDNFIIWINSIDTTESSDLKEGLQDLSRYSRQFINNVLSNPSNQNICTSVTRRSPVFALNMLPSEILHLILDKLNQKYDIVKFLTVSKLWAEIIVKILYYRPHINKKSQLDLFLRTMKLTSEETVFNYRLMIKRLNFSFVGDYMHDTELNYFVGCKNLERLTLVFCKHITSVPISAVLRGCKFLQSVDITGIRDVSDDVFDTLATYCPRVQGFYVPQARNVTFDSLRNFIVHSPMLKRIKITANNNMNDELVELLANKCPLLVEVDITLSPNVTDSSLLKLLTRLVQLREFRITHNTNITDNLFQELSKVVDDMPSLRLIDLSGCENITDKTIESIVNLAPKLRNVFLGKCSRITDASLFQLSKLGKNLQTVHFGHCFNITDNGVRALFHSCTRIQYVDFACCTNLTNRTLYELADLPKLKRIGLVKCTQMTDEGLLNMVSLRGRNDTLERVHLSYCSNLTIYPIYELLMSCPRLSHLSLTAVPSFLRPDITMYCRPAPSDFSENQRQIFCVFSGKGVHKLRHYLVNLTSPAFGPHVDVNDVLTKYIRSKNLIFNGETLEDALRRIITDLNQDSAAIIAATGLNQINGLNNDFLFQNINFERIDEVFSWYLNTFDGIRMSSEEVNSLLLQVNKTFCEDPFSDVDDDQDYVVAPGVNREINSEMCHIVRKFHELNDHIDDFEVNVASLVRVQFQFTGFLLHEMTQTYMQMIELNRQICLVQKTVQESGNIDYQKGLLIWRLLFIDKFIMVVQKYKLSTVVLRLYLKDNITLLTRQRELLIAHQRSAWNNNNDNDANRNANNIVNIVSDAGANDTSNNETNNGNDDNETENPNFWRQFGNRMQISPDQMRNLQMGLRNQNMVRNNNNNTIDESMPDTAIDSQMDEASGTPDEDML

T2: Psk1 (PAS kinase), two-hybrid bait (S. cerevisiae) (UniProt P31374)
T2 sequence: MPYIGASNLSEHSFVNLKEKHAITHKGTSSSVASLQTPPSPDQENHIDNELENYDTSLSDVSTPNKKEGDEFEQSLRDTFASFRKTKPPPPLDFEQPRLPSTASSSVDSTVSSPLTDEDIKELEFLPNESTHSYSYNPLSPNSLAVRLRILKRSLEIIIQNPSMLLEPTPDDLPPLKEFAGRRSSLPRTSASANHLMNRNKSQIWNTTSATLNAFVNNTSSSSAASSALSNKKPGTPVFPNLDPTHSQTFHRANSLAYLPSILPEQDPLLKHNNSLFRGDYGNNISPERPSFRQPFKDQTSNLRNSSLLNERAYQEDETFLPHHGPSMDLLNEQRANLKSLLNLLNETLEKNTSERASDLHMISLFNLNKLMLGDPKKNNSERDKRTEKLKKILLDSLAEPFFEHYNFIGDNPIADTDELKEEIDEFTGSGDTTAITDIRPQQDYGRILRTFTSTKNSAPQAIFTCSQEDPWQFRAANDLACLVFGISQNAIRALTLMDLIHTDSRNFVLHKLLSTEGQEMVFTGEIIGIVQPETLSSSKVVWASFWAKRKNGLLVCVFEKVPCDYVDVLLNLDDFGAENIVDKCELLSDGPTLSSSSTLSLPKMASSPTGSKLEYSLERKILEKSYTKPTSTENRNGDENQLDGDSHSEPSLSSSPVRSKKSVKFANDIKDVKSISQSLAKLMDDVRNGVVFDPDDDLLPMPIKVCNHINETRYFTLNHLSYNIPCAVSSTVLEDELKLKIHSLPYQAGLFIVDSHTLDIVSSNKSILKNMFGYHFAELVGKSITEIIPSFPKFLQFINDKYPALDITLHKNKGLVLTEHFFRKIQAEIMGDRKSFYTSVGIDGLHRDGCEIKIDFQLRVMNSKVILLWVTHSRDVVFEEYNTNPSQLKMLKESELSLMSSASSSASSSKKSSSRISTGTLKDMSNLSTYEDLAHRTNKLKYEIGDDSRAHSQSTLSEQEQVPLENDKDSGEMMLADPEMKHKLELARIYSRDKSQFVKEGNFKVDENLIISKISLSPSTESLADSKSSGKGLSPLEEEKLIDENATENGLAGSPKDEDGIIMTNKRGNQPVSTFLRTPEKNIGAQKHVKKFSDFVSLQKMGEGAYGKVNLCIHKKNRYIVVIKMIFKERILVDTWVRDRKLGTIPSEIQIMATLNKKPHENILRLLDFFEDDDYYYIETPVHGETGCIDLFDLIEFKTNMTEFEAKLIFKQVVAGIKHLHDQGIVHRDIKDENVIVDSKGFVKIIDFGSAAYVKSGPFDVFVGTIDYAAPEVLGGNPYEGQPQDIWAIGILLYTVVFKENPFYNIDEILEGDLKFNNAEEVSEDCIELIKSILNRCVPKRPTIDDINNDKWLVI

T3: Cdk8-HA (S. cerevisiae) (UniProt P39073)
T3 sequence: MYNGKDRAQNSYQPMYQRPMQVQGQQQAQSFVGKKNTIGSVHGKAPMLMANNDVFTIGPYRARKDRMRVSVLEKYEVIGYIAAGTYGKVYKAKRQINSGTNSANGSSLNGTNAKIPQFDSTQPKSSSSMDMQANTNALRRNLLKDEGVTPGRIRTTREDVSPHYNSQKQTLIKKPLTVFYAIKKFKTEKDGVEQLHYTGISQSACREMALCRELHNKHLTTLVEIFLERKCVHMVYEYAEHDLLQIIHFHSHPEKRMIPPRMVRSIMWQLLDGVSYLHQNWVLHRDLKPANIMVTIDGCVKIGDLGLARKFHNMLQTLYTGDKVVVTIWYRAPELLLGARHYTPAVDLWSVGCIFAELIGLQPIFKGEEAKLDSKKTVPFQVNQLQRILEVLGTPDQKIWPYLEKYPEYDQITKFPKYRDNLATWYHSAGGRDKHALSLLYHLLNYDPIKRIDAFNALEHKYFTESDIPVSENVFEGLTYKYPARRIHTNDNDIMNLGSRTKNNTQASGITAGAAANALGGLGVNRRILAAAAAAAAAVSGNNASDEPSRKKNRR

B1: Gal4 activating domain Med13^571-650 fusion protein (domain or fragment, UniProt P38931 571-650)
chain: KRKYLDIPIDEMTLPTSPLYMDPGAPLPVETPRDRRKSVFAPLNFNPIIENNVDNKYKSGGKFSFSPLQKEEALNFDISM
B2: Snf1-myc (enzyme, UniProt P06782 1-633)
chain: MSSNNNTNTAPANANSSHHHHHHHHHHHHHGHGGSNSTLNNPKSSLADGAHIGNYQIVKTLGEGSFGKVKLAYHTTTGQKVALKIINKKVLAKSDMQGRIEREISYLRLLRHPHIIKLYDVIKSKDEIIMVIEYAGNELFDYIVQRDKMSEQEARRFFQQIISAVEYCHRHKIVHRDLKPENLLLDEHLNVKIADFGLSNIMTDGNFLKTSCGSPNYAAPEVISGKLYAGPEVDVWSCGVILYVMLCRRLPFDDESIPVLFKNISNGVYTLPKFLSPGAAGLIKRMLIVNPLNRISIHEIMQDDWFKVDLPEYLLPPDLKPHPEEENENNDSKKDGSSPDNDEIDDNLVNILSSTMGYEKDEIYESLESSEDTPAFNEIRDAYMLIKENKSLIKDMKANKSVSDELDTFLSQSPPTFQQQSKSHQKSQVDHETAKQHARRMASAITQQRTYHQSPFMDQYKEEDSTVSILPTSLPQIHRANMLAQGSPAASKISPLVTKKSKTRWHFGIRSRSYPLDVMGEIYIALKNLGAEWAKPSEEDLWTIKLRWKYDIGNKTNTNEKIPDLMKMVIQLFQIETNNYLVDFKFDGWESSYGDDTTVSNISEDEMSTFSAYPFLHLTTKLIMELAVNSQSN

Key:
[1] = target: T1, Grr1 (wild-type), Gal4 binding domain bait (S. cerevisiae); assay: two-hybrid; Gal4 yeast two-hybrid in PJ69-4a cells; Med13 fragment on the Gal4 activating domain (prey), bait on the binding domain; growth on -TRP, -LEU, -HIS, -ADE medium (dual HIS3 and ADE2 reporter genes)
[2] = target: T2, Psk1 (PAS kinase), two-hybrid bait (S. cerevisiae); assay: as above
Cdk8-HA (S. cerevisiae) = target: T3, Cdk8-HA (S. cerevisiae); assay: co-IP; protein extracts of mid-log wild-type yeast with Snf1-myc and Cdk8-HA on single copy plasmids, treated with 0.4 mM H2O2 for a time course; immunoprecipitated with anti-HA, Western blot

| Binder | binding [1] | binding [2] | binding (Cdk8-HA (S. cerevisiae)) |
| --- | --- | --- | --- |
| B1 | binds | binds | – |
| B2 | – | – | binds |
